In publication PMC3395716:
These are yes or no findings as the source states them, for the method shown. Binding seen in cells or lysates may run through a third protein. Some entries that bind do so weakly or less than the wild type.

The chains behind the UniProt entries cited, without tags or fusion partners.
UniProt P19793: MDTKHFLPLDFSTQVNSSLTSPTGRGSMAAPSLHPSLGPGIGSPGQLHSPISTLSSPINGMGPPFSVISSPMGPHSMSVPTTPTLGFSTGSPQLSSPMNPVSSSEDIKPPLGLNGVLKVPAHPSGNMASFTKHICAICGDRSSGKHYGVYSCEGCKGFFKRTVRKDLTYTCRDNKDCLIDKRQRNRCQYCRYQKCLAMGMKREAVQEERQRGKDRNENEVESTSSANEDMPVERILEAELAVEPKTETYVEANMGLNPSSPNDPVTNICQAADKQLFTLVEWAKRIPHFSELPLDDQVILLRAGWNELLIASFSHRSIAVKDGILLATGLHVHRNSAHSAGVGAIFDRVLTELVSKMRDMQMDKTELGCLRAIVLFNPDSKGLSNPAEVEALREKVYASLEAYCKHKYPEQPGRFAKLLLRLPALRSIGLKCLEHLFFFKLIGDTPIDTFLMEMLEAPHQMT
UniProt P42224: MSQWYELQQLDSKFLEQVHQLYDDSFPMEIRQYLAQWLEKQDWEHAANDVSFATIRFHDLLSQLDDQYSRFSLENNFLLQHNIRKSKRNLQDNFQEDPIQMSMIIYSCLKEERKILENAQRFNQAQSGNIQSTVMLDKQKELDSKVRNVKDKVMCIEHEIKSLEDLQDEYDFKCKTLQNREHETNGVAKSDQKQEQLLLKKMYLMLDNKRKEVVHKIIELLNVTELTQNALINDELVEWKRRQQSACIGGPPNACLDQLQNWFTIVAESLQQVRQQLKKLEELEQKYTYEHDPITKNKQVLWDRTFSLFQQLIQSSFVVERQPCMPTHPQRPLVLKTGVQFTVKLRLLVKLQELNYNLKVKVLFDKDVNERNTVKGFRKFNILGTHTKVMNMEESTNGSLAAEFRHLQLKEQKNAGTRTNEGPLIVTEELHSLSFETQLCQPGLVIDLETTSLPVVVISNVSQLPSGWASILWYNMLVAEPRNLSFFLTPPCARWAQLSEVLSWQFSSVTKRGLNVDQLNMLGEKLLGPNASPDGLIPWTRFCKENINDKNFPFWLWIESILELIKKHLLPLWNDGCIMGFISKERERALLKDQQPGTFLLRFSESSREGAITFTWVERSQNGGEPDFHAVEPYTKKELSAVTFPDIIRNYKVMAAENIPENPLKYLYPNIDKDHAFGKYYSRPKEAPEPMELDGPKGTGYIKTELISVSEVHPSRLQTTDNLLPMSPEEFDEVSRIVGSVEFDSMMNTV

What was measured:
[1] = target: RXRα (overexpressed in HEK-293T cells) (UniProt P19793); assay: co-IP; cellular extracts of HEK-293T cells transfected with STAT1 and RXRα expression vectors; anti-RXRα (or anti-STAT1) antibodies 16 h at 4°C, protein A/G Sepharose beads 1 h at 4°C; Western blotting with rabbit anti-STAT1
GST-RXRα fusion protein = GST-RXRα fusion protein (UniProt P19793); assay: pull-down; GST-RXRα (or GST) immobilised on glutathione-agarose beads, incubated with whole cell extracts of STAT1-overexpressing RAW 264.7 cells in Interaction Buffer (20 mM Hepes, 5 mM MgCl2, 0.2% NP40, 0.2% BSA, 7.5% glycerol, protease inhibitors) for 16 h at 4°C; washed with 100 mM KCl, 20 mM Hepes pH 7.9, 5 mM MgCl2, 0.2% NP40; Western blotting with anti-STAT1; only the target purified

Substance | binding [1] | binding (GST-RXRα fusion protein)
STAT1 (overexpressed in HEK-293T cells) (from UniProt P42224 1-750) | binds | 
STAT1 (overexpressed in RAW 264.7 macrophages) (from UniProt P42224 1-750) |  | binds
